In all, about 360,000 compounds went through this assay and about 610 (0.17%) were called active. The shares of active, inactive and inconclusive entries below differ from those in the screen. No stated cut-off is given here; in the data, active means inhibition above about 30%; inconclusive means no clear call, values can overlap the other calls; inactive means below that.
The compounds below were run on Botulinum neurotoxin type A light chain protease (Clostridium botulinum A str. ATCC 3502) (assay: blockers of BoNT/A LC substrate cleavage – biochemical, flow cytometry, MLPCN library, primary screen (AID 588499; further: plate controls were buffer without enzyme for full effect and enzyme alone for no effect)). Settings: multiplex microsphere protease substrate cleavage, at 10 µM, hits give high values.

Q: For `CC1(C)CCCC2(C)C(OCCO)=CC(=O)C=C12` (stereo not given), which inhibition is on record?
A: inactive: -0.7%

Q: How did the inhibition turn out when `COc1cc(OC)c(OC)cc1/C=N/NC(=O)c1ccc2nc[nH]c2c1` was run?
A: inconclusive: -56.4%

Q: With `COc1ccccc1N=Cc1c(C)[nH]n(-c2ccc(C)cc2C)c1=O` as the compound, how does the inhibition read?
A: inactive: -0.4%

Q: With `COc1ccc(CC2C(=O)OC(C)(C)OC2=O)cc1` as the compound, how does the inhibition read?
A: inactive: 0.9%

Q: How did the inhibition turn out when `Cc1cc2n(n1)SC(Nc1cc(Cl)ccc1Cl)N2` (stereo not given) was run?
A: inactive: 0.5%

Q: With `CCN1CCC(NC(=O)c2cc(OC)c(OC)cc2OC)CC1` as the compound, how does the inhibition read?
A: inconclusive: -3.1%

Q: How did the inhibition turn out when `CN(C)CCCNCCCNC(=O)/C(=N\O)c1ccccn1` was run?
A: inconclusive: -1.2%

Q: For `Cc1ccccc1NS(=O)(=O)c1cccc(-c2nnc(-c3ccccc3)o2)c1`, which inhibition is on record?
A: inconclusive: -0.7%

Q: How did the inhibition turn out when `N#CCC(=O)Nc1ccc(C(=O)OC(C(=O)Nc2cc(C(F)(F)F)ccc2Cl)c2ccccc2)cc1` (stereo not given) was run?
A: inconclusive: 2.1%

Q: `CC1CCN(CC(=O)Nc2nccs2)CC1` was tested. Which inhibition did it give?
A: inconclusive: -1.1%

Q: For `C(=C\c1nc2ccccc2[nH]1)/c1ccccc1`, which inhibition is on record?
A: inactive: -0.5%

Q: `COc1cc(OC)c(CN2CCc3c([nH]c4ccccc34)C2)cc1Br` was tested. Which inhibition did it give?
A: active: 51.3%

Q: Which inhibition does the source give for `Cc1cc(=O)[nH]c(SCc2nc3ccccc3n2Cc2ccccc2)n1` here?
A: inconclusive: 4.8%

Q: `Cc1ccc2c(c1C)NC(C(=O)O)C1CC=CC21` (stereo not given) was tested. Which inhibition did it give?
A: inconclusive: 0.4%

Q: How did the inhibition turn out when `COC(=O)[C@]12CCCCC=C1N(Cc1ccc(Cl)cc1Cl)C(=O)[C@H](CC(=O)N1CCN(C(=O)C3CC3)CC1)C2` was run?
A: inactive: -0.4%

Q: Which inhibition does the source give for `O=C(c1ccc(F)cc1)N1CCCC(C(=O)N2CCc3ccccc3C2)C1` (stereo not given) here?
A: inconclusive: -5%

Q: `CCOC(=O)C1=C(N)OC2=C(C(=O)CCC2)C12C(=O)N(C)c1ccccc12` (stereo not given) was tested. Which inhibition did it give?
A: inconclusive: -74.4%

Q: With `O=C(NCc1cccnc1)C1Cc2c(-c3ccc(Cl)cc3)ccnc2O1` (stereo not given) as the compound, how does the inhibition read?
A: inactive: -0.5%

Q: How did the inhibition turn out when `CC12CN(C(=O)c3ccc(Cl)cc3)C3(C#N)CC1CCC23C` (stereo not given) was run?
A: inconclusive: -8.8%

Q: With `Cc1cccc(OCCC(=O)NNC(=O)c2ccoc2C)c1` as the compound, how does the inhibition read?
A: inactive: 2.5%

Q: `Cc1ccc(NC(=S)N/N=C/c2ccc([N+](=O)[O-])s2)cc1` was tested. Which inhibition did it give?
A: active: 47.3%

Q: How did the inhibition turn out when `CSCCCN1CC[C@@H](N2CCN(c3ccccc3F)CC2)[C@H](O)C1` was run?
A: inconclusive: 0.3%

Q: Which inhibition does the source give for `CC(CCc1ccccc1)NC(=O)Cn1cccc1C(=O)c1ccccc1` (stereo not given) here?
A: inactive: -0.8%

Q: Which inhibition does the source give for `CCN1C[C@@H]2[C@@H]3C(=O)N(Cc4ccccc4)C(=O)[C@@H]3[C@](C)(C(=O)OC)N2C1=NC` here?
A: inactive: -0.1%

Q: For `CN(C)c1cccc(Oc2nc3c(c(=O)n(C)c(=O)n3C)n2C)c1`, which inhibition is on record?
A: inconclusive: 2.6%
